Laboratory results as given in the supplement of paper PMC10849652.
The list shows a part of the results. Residues, ends and D or L forms follow the SMILES beside them. *: point of attachment. Cbz = O=C(OCc1ccccc1)*

Protein sequences, listed by entry. Tags and fused reporters are not part of them. Lines headed by an entry give the natural chain unless they say otherwise; changes in a name come on top.
UniProt Q53T59: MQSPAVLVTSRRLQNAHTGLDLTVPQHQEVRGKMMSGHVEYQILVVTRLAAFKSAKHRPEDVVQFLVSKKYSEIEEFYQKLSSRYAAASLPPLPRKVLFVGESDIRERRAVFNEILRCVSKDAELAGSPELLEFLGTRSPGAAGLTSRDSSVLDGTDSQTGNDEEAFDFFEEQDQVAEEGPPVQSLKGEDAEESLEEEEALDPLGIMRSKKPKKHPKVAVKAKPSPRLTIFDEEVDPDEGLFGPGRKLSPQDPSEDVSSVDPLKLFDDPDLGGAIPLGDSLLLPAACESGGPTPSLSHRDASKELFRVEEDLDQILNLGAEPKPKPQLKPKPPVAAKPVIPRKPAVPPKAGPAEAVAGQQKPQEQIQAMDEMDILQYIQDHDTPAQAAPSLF
UniProt Q9BUP3: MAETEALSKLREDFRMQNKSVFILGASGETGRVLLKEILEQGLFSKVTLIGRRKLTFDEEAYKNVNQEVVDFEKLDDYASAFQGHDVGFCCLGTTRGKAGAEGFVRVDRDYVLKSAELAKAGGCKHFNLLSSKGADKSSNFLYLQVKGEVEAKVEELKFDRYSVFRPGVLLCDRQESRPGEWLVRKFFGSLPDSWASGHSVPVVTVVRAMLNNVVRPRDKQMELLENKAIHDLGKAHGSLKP
UniProt P04035: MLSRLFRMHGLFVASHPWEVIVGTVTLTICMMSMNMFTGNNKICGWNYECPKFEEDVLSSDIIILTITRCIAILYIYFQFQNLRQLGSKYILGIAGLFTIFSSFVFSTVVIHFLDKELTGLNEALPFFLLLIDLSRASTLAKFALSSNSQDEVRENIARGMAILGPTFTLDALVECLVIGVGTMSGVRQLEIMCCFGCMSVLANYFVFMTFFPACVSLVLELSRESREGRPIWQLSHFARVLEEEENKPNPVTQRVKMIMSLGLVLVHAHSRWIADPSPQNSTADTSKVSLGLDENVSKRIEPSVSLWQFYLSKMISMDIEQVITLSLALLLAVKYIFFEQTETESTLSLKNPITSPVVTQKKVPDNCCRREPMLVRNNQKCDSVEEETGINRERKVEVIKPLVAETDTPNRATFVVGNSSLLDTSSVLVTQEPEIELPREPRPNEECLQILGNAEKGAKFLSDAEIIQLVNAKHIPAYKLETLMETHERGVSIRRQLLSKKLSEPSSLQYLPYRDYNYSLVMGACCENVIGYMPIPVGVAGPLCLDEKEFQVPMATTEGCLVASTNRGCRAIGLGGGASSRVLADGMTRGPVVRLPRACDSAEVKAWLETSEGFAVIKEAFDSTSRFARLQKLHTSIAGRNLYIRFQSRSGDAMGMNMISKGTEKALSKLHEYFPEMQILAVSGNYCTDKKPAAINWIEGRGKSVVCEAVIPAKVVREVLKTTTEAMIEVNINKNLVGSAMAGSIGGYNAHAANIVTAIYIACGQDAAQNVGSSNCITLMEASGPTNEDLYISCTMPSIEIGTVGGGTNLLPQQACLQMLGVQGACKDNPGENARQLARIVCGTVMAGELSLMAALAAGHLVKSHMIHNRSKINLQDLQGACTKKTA
UniProt Q58FF6, whole entry, looked up: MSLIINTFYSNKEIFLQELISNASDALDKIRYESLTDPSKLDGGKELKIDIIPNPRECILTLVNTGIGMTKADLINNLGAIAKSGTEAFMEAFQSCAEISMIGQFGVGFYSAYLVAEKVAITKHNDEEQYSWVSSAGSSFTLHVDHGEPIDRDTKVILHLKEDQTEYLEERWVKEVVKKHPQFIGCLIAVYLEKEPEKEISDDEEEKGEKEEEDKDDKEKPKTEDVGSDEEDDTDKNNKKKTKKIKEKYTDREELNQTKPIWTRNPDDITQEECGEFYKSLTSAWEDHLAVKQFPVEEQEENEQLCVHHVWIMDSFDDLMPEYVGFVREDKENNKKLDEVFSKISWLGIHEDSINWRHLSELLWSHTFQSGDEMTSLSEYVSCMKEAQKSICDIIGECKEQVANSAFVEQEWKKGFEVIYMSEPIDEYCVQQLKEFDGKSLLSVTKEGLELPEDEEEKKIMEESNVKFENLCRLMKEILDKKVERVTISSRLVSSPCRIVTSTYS
UniProt Q8TCT9: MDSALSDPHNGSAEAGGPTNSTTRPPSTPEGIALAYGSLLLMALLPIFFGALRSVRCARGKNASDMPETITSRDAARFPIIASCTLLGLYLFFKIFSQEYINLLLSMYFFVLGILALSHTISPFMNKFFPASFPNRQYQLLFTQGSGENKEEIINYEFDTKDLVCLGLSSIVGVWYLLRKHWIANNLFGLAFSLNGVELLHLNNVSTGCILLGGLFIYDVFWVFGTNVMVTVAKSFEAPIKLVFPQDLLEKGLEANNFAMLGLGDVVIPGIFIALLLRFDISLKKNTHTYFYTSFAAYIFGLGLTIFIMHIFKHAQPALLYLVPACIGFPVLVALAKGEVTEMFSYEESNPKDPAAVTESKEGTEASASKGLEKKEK
UniProt P31943: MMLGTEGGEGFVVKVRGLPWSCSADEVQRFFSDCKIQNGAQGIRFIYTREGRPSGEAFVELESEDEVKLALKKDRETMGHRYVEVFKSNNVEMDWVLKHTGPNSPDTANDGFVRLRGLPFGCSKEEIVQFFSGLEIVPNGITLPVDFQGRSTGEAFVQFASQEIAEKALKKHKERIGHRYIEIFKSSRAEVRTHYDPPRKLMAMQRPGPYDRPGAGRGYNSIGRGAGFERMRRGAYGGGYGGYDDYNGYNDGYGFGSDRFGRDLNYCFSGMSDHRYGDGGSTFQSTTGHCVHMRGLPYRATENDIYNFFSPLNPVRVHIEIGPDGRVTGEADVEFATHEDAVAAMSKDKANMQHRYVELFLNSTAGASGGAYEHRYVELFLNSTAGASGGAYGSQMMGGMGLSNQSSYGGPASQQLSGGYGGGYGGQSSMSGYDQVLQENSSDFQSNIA
UniProt Q9BX68: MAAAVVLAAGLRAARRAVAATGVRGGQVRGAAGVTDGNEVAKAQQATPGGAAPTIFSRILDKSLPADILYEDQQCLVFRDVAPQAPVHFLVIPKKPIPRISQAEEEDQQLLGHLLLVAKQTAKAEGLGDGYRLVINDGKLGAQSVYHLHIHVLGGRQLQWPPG
UniProt Q86YM7: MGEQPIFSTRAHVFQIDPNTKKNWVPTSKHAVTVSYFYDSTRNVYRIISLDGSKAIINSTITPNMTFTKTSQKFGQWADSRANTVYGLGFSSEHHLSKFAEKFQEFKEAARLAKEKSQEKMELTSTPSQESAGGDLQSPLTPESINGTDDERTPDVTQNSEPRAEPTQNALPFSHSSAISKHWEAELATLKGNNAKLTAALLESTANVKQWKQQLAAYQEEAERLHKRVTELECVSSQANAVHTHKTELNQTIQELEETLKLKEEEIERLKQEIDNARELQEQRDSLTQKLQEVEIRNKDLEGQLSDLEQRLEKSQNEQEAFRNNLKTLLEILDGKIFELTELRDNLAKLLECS
UniProt Q86VS8: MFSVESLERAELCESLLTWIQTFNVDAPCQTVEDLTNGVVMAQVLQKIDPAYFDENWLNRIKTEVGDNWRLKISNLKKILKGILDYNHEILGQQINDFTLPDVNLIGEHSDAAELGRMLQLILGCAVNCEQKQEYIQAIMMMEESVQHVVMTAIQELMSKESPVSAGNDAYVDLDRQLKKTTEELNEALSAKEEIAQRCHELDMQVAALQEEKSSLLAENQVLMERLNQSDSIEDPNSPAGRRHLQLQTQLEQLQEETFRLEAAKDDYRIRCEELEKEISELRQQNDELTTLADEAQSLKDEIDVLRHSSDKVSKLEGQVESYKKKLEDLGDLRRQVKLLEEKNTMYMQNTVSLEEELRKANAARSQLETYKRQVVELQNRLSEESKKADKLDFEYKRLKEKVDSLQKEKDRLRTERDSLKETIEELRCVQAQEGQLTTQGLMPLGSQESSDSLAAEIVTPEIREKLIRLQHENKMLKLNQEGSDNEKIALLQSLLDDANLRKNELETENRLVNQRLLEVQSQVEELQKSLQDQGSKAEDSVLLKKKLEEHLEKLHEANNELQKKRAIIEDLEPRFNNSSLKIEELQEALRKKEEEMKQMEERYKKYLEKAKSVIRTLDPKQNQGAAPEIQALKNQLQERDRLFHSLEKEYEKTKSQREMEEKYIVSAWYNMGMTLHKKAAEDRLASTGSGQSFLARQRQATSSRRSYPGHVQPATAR

Experiments:
Assay in all cases: log2 fold change, soluble protein after heating vs DMSO (PISA); higher = thermal stabilisation; K562 cells, 10 uM, 30 min; active = over 0.2 and 3.5 SD of the protein, either way, in both replicates (recomputed)
IRAK-1-4 Inhibitor I = compound: C1COCCN1CCN2C3=CC=CC=C3N=C2NC(=O)C4=CC(=CC=C4)[N+](=O)[O-] [IRAK-1-4 Inhibitor I]
Summary of the method: (§1)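 K562 cells at 2×10^6 cells/mL were exposed to 10 μM compound for 30 min, then aliquots were heated for 3 min across 48°C-58°C, pooled, and extracted in PBS containing 0.5% NP-40 at 4°C. The supernatant after 21,000xg for 90 min was taken as soluble protein and measured by TMTpro 16plex LC-MS/MS with channel sums equalised. Thermal stability is reported relative to control samples, with values from duplicates. Fold changes are given on a log2 scale.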

ibrutinib = compound: C=CC(=O)N1CCC[C@@H](n2nc(-c3ccc(Oc4ccccc4)cc3)c3c(N)ncnc32)C1 [ibrutinib]
Summary of the method: as §1

[1] = compound: CC(=O)c1cnc2ccc(-c3cc(Cl)c(O)c(Cl)c3)nc2c1N[C@H]1CC[C@H](CN(C)C)CC1
Summary of the method: as §1

ralimetinib = compound: CC(C)(C)Cn1c(N)nc2ccc(-c3[nH]c(C(C)(C)C)nc3-c3ccc(F)cc3)nc21 [ralimetinib]
Summary of the method: as §1

[2] = compound: CC(C)(O)CC(=O)NCCn1ccc2ncnc(Nc3ccc(Oc4cccc(C(F)(F)F)c4)c(Cl)c3)c21
Summary of the method: as §1

[3] = compound: CC(C)C1=C2N=C(C=C(N2N=C1)NCC3=CC=CC=C3)NCCCCCCN
Summary of the method: as §1

[4] = compound: CC(C)C[C@@H](C=O)NC(=O)[C@H](CC(C)C)NC(=O)[C@H](CC(C)C)NC(=O)OCc1ccccc1
Summary of the method: as §1

pinometostat = compound: CC(C)N(C[C@H]1O[C@@H](n2cnc3c(N)ncnc32)[C@H](O)[C@@H]1O)[C@H]1C[C@@H](CCc2nc3cc(C(C)(C)C)ccc3[nH]2)C1 [pinometostat]
Summary of the method: as §1

[5] = compound: CC1=C(C=C(C=C1)NC(=O)C2=CC(=CC=C2)C(C)(C)C#N)NC3=CC4=C(C=C3)N=CN(C4=O)C
Summary of the method: as §1

[6] = compound: CC1=C(C=C(C=C1)NC(=O)C2=CC(=CC=C2)N(C)C)NC(=O)C3=CC=C(C=C3)O
Summary of the method: as §1

[7] = compound: CC1=CC=C(C=C1)SC2=C3C=C(SC3=CN=C2)C(=O)N
Summary of the method: as §1

[8] = compound: CC1=NC(=CC=C1)C2=C(N=C(N2)C(C)(C)C)C3=CC4=NC=CN=C4C=C3
Summary of the method: as §1

Nexturastat A = compound: CCCCN(Cc1ccc(C(=O)NO)cc1)C(=O)Nc1ccccc1 [Nexturastat A]
Summary of the method: as §1

vemurafenib = compound: CCCS(=O)(=O)Nc1ccc(F)c(C(=O)c2c[nH]c3ncc(-c4ccc(Cl)cc4)cc23)c1F [vemurafenib]
Summary of the method: as §1

[9] = compound: CCCS(=O)(=O)Nc1ccc(F)c(C(=O)c2c[nH]c3ncc(Cl)cc23)c1F
Summary of the method: as §1

givinostat = compound: CCN(CC)Cc1ccc2cc(COC(=O)Nc3ccc(C(=O)NO)cc3)ccc2c1 [givinostat]
Summary of the method: as §1

barasertib = compound: CCN(CCCOc1ccc2c(Nc3cc(CC(=O)Nc4cccc(F)c4)[nH]n3)ncnc2c1)CCOP(=O)(O)O [barasertib]
Summary of the method: as §1

[10] = compound: CC1=C(C2=C(C=C1)C(=O)C3=CC=CC=C3N2CCCN)C
Summary of the method: as §1

[11] = compound: CCCc1cc(C)[nH]c(=O)c1CNC(=O)c1cc(-c2ccnc(N3CCN(C)CC3)c2)cc2c1cnn2C(C)C
Summary of the method: as §1

[12] = compound: CC1=C(C(CC(=O)N1)C2=CC=C(C=C2)C(F)(F)F)C(=O)NC3=C(C=C4C(=C3)C=NN4)F
Summary of the method: as §1

Measured: log2 fold change

HS1BP3 (UniProt Q53T59)
inactive: IRAK-1-4 Inhibitor I 0.004 | ibrutinib -0.029 | [1] -0.117 | ralimetinib 0.038 | [2] -0.059 | [3] -0.038 | [4] 0.086 | pinometostat -0.002 | [5] 0.023 | [6] -0.045 | [7] -0.109 | [8] -0.046 | Nexturastat A 0.052 | vemurafenib 0.132 | [9] 0.021 | givinostat 0.111 | barasertib 0.047

HTATIP2 isoform 3 (UniProt Q9BUP3)
active: [2] 0.651
inactive: IRAK-1-4 Inhibitor I 0.007 | ibrutinib 0.003 | [1] -0.034 | ralimetinib 0.077 | [3] -0.182 | [4] -0.021 | pinometostat 0.006 | [10] 0.025 | [5] 0.065 | [6] -0.093 | [7] 0.011 | [8] -0.007 | Nexturastat A -0.14 | vemurafenib 0.057 | [9] 0.039 | [11] 0.059 | givinostat 0.012 | barasertib 0.041

HNRNPK isoform 3 (UniProt P61978)
inactive: IRAK-1-4 Inhibitor I -0.011 | ibrutinib -0.001 | ralimetinib 0.03 | [2] 0.087 | [3] 0.075 | [4] 0.041 | pinometostat -0.021 | [10] 0.21 | [5] -0.015 | [6] 0.027 | [8] 0.066 | Nexturastat A 0.085 | vemurafenib -0.066 | [11] -0.067 | givinostat 0.062 | barasertib -0.136

HMGCR isoform 3 (UniProt P04035)
inactive: IRAK-1-4 Inhibitor I 0.037 | ibrutinib -0.001 | [1] 0.022 | ralimetinib -0.005 | [2] -0.023 | [3] 0.029 | pinometostat 0.014 | [10] -0.044 | [5] 0.131 | [6] -0.046 | [7] 0.061 | [8] -0.115 | Nexturastat A 0.074 | vemurafenib -0.002 | [9] -0.04 | [11] -0.043 | givinostat 0.034 | barasertib 0.027
active: [4] 0.383

HSP90AB4P (UniProt Q58FF6)
inactive: IRAK-1-4 Inhibitor I 0.016 | ibrutinib -0.129 | [1] -0.053 | [2] 0.02 | [3] 0.018 | pinometostat -0.026 | [12] 0.025 | [10] 0.086 | [5] -0.043 | [8] 0.054 | Nexturastat A -0.014 | [11] 0.033 | givinostat -0.046 | barasertib 0.112

HM13 (UniProt Q8TCT9)
inactive: IRAK-1-4 Inhibitor I 0.052 | ibrutinib -0.032 | [1] 0.005 | ralimetinib -0.034 | [2] -0.004 | [4] -0.02 | pinometostat 0.007 | [12] 0.028 | [10] -0.043 | [5] -0.057 | [6] 0.024 | [7] 0.036 | [8] -0.025 | Nexturastat A -0.001 | vemurafenib 0.029 | [9] 0.012 | [11] 0.112 | barasertib -0.005

HSPA8 (UniProt E9PN89)
inactive: IRAK-1-4 Inhibitor I -0.032 | ibrutinib -0.069 | [1] -0.145 | [2] 0.127 | [3] 0.085 | pinometostat -0.004 | [10] 0.043 | [5] -0.158 | [7] -0.261 | [8] -0.144 | Nexturastat A -0.019 | vemurafenib -0.276 | [9] -0.507 | [11] -0.689 | givinostat 0.182 | barasertib 0.03

HNRNPH1 (UniProt P31943)
inactive: IRAK-1-4 Inhibitor I -0.032 | ibrutinib 0.048 | [1] -0.176 | ralimetinib -0.018 | [2] 0 | [4] 0.131 | pinometostat 0.031 | [10] -0.045 | [5] 0.077 | [6] -0.044 | [7] 0.005 | [8] 0.047 | Nexturastat A 0.201 | vemurafenib 0.086 | [9] 0.144 | [11] 0.029 | givinostat 0.115 | barasertib 0.05
active: [3] -0.427

HINT2 (UniProt Q9BX68)
inactive: IRAK-1-4 Inhibitor I -0.09 | ibrutinib 0.008 | [1] -0.088 | ralimetinib -0.053 | [3] 0.058 | [4] -0.028 | pinometostat 0.053 | [12] 0.023 | [10] 0.244 | [5] 0.081 | [6] -0.066 | [7] -0.008 | [8] 0.153 | vemurafenib 0.045 | [9] -0.035 | [11] -0.025 | givinostat -0.014 | barasertib 0.026

Reprinted from the listing (two entries):
HSPA8 (UniProt E9PN89)
inactive: IRAK-1-4 Inhibitor I -0.032 | ibrutinib -0.069 | [1] -0.145 | [2] 0.127 | [3] 0.085 | pinometostat -0.004 | [10] 0.043 | [5] -0.158 | [7] -0.261 | [8] -0.144 | Nexturastat A -0.019 | vemurafenib -0.276 | [9] -0.507 | [11] -0.689 | givinostat 0.182 | barasertib 0.03

HNRNPH1 (UniProt P31943)
inactive: IRAK-1-4 Inhibitor I -0.032 | ibrutinib 0.048 | [1] -0.176 | ralimetinib -0.018 | [2] 0 | [4] 0.131 | pinometostat 0.031 | [10] -0.045 | [5] 0.077 | [6] -0.044 | [7] 0.005 | [8] 0.047 | Nexturastat A 0.201 | vemurafenib 0.086 | [9] 0.144 | [11] 0.029 | givinostat 0.115 | barasertib 0.05
active: [3] -0.427

More entries follow:

HMBS (UniProt F5H226)
inactive: IRAK-1-4 Inhibitor I 0.172 | ibrutinib 0.126 | pinometostat 0.191 | [10] 0.104 | [5] -0.02 | [8] -0.165 | vemurafenib -0.118 | [11] 0.086 | barasertib -0.049

HOMER1 (UniProt Q86YM7)
active: pinometostat -0.225
inactive: IRAK-1-4 Inhibitor I 0.104 | ibrutinib 0.009 | [1] -0.043 | ralimetinib 0.004 | [2] 0.03 | [3] 0.034 | [4] -0.088 | [10] 0.093 | [5] -0.049 | [6] -0.059 | [7] -0.009 | [8] 0.125 | Nexturastat A -0.138 | vemurafenib -0.021 | [9] 0.071 | [11] 0.085 | givinostat 0.007 | barasertib 0.036

HOOK3 (UniProt Q86VS8)
inactive: IRAK-1-4 Inhibitor I 0.003 | ibrutinib -0.057 | [1] -0.018 | ralimetinib 0.033 | [2] -0.109 | [3] -0.138 | [4] 0.056 | pinometostat 0.024 | [10] 0.02 | [5] -0.024 | [6] -0.023 | [7] -0.014 | [8] -0.039 | Nexturastat A 0.034 | vemurafenib -0.014 | [9] -0.001 | [11] -0.026 | givinostat 0.091 | barasertib 0.008
